Reference: PubChem BioAssay AID1508600 (Functional Genomics Laboratory (NCATS/FGL), 2020)
The campaign covered roughly 53,000 sequences. About 3,700 (7%) were called active.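 The calls were made as follows: active = gene knockdowns whose robust z-score for IL-1 alpha signal is at least 2 or at most -2, so actives lie on both sides; inactive = the rest.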 Some of the results follow.

test: Components of the Cytosolic LPS Sensing Pathway: Gene Identification via Genome-wide siRNA Screen; details: RAW264.7 macrophages, IL-1a HTRF, actives lie on both sides, screened at 100 nM (by protocol), cells primed 5 h with Pam3CSK4 first;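 also: robust z of the log signal after scaling to non-targeting control siRNA wells of the plate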
Method in brief: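 Using IL-1a HTRF as read-out, the screen measured release from RAW264.7 cells after 48h siRNA knockdown (100 nM), 5 h Pam3CSK4 priming and 24 h cytosolic LipidA. Values were expressed relative to negative-control wells as robust z-scores.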

Sequence	z-score
GGCUUUCGUGUUUUCAGUUTT against 4921524J17Rik	inactive: 0.159
GGCCAAAAAUUUCAUCUCUTT against Itgae	inactive: 1.06
GCACCUGAAGACUAAUGUUTT against Gcnt2	inactive: 0.509
GGUCUUUCAGAAAGUAGAUTT against Zbtb46	inactive: -0.0458
GGUUGAUGAAGCUAAUUUATT against Ube2l3	inactive: 0.206
GGAGUUUUGAAUAAACCAATT against Tmc7	inactive: -0.2
CGACUUCGUCAUAAGAAUATT against Map3k6	inactive: 0.299
CGAGAUUGUGGAUAGCUUUTT against Eif4a1	inactive: 0.284
GGACUUGAAGUAAAGUAUATT against Megf9	inactive: 0.156
GGAACAACCACGGAACCCATT against Il1r2	inactive: 0.335
GCGCACCGUCAAAGUGAAATT against Atp5o	inactive: 0.906
GCUCGUUCGCCUAGAAUUGTT against Mycbp	inactive: 0.529
GGUACACAUGACAUUCAUGTT against Gcdh	inactive: 0.553
GGACUUUUCAUUUGAAGCATT against Gar1	inactive: 1.03
GGAGUCAUGCUCAUUUUGCTT against Skint2	inactive: 0.762
GGUAAUGUCCUUAUCAUCUTT against Olfr211	inactive: -1.42
GGACAAUUGUGACCUCAGATT against Tmem82	inactive: -0.321
GGAGAUUGAUUUCAAUGCCTT against Olfr665	inactive: 0.203
GGUAAGGUUACAGCACUGATT against Chac2	inactive: -0.489
GGUGAUUUGUAAGACAGCUTT against Dpyd	inactive: -0.626
GGCUGUGAGAACGAUGCAATT against Fam151a	inactive: -1.08
GCCUUAGGUUCGGAUGACCTT against Rorb	inactive: -0.961

Sequence	z-score
GCGGUAACAUCACCAAAAUTT against Gltp	inactive: -1.63
GCUUUGUUGCGUCAACAAATT against Sdccag8	inactive: -0.504
GGACAAGUUAGAGGAAUUUTT against Phf13	inactive: 1.96
GGGUUUUUGGGAGAGCCAATT against Tbxas1	inactive: -1.48
GGCUAUUGCUGACCUCAGATT against Pidd1	active: -2.73
GGUCUACAAUGUGCGCACUTT against Trmt61a	inactive: 0.386
GGUUACGAAUUACCUAGACTT against Plat	inactive: 0.0523
GGUGGAAGUGAAGAAGCGATT against Depdc7	inactive: -0.838
GGACUGACUGGAUUUUUCCTT against Adamts12	inactive: -0.102
GGACUCAACUGGACAGCCUTT against E330037G11Rik	inactive: -0.556
GGCCUUUCUAAAUUCAACATT against Top3a	inactive: -1.16
CGAGGAAUAACAACAGCCUTT against Itk	inactive: -0.977
GGGAGCAACAAUGUAAACATT against Pex13	inactive: 1.04
GGAAAACUUACCUUCUUAATT against Zfp157	inactive: -0.143
GGCUGAUUCAUUUGGGAACTT against Olfr9	inactive: 0.805
GGAUUAUUCCCAGUAUGAGTT against Krt23	inactive: 0.125
GGUGUUAACAAAAUGUACCTT against Phyh	active: 2.54
CCUGAAUUGUUCCUUCCAUTT against Zfp771	inactive: 0.482
UCUGUAAACCCUUACGAUATT against Olfr1206	inactive: 0.452
CCUUGUUACACAGUUUAAATT against Aqp4	inactive: 1.91
GGUGGUUGAAGAAAUGGCUTT against Timm8a1	inactive: -0.364
GGAUGUGAUUGAUAUUGAATT against Cul7	inactive: 1.63

Already shown: an excerpt of the list.
Sequence	z-score
CGAGAUUGUGGAUAGCUUUTT against Eif4a1	inactive: 0.284
GGACUUGAAGUAAAGUAUATT against Megf9	inactive: 0.156
GGAACAACCACGGAACCCATT against Il1r2	inactive: 0.335
GCGCACCGUCAAAGUGAAATT against Atp5o	inactive: 0.906

(continued)

Sequence	z-score
GGGCCUCAUCUUUGUGGUATT against Arf5	inactive: 0.359
GGAGUUGGGUCAUCUUCGATT against Ccdc61	inactive: 0.0739
GGAUCUAGGAGCUGAUUAUTT against Mecr	inactive: -1.18
GGUGGAGGCAGGAAAAUCUTT against Mrpl57	inactive: -0.808
GUGAAACCUACAAAAAGCCTT against Ms4a4c	inactive: 1.25
GCAGAGAGGAUAACUGACCTT against Slc25a44	inactive: -0.723
GGACGUAAUACCUGAGGAUTT against Caps2	inactive: -1.35
GGACAAGAAGGCAAAUUAGTT against Arhgap9	inactive: 0.366
GCAUCUAAGAAGCUGAAAATT against Apip	inactive: 0.538
GGGUUUCACAGGCAAACAGTT against Suclg1	inactive: -0.904
GGACUGAAACUCGAAGCUATT against Pou4f2	inactive: -0.603
GCUCAUCACCUAUGCAGGCTT against Olfr371	inactive: 0.634
CGGAUGUGCCAUCCAUCAGTT against Tespa1	inactive: -0.135
CGUCUAAAAGCUAAAGAAUTT against Serpinb1b	inactive: -0.252
GGAAAAACCUUGCUGGAACTT against Atp2a2	inactive: 0.147
UGAUAGUCUCCACUAAAUUTT against Gm4884	inactive: -0.265
GCAAGAGUUAGUCUAAUGUTT against Pcid2	inactive: -0.241
GCUGGUCGAUCAGAAAUGCTT against Cfi	inactive: 0.463
GGUGUGGUCAUUCCAAAUGTT against Ms4a8a	inactive: 0.042
GGUAUCCUGAUUGUUGAGUTT against Fam228a	inactive: 1.18
GGUGAUGCGAUCUUCUUUATT against Anxa10	inactive: 1.76
ACCUCCAGUCGCAUAGAAGTT against Platr25	inactive: -1.64

Sequence	z-score
GGAGUUUGAGGAUGAAGACTT against Mapk8ip1	inactive: -0.892
GGACAUUCUUCAGAACUGGTT against Ogfr	inactive: -0.865
GGAGAACACAGUACAGAUGTT against Zfp398	inactive: 0.676
GGCAACGAGUCAAGUGUGUTT against Ascl3	inactive: -0.589
GGAUGGAACUUACAACUGGTT against Sirpb1a	inactive: 1.16
GCAGAUUUUAGCUCCUCGATT against Sybu	inactive: -1.89
GGGCAAAAAUAGGAAGAACTT against Armcx2	inactive: 0.849
GCAAAACUUGACUACCGCCTT against Bzw1	active: 2.08
GCAAGACCGAAGUCACGGATT against Krt19	active: 2.87
GCAUAUGAUGCCUUCCUUCTT against Strbp	inactive: -1.47
GGAGUUAAAAUCACUCAUCTT against Irgm1	inactive: 1.33
GGAAAUUUCUUAGCACGAATT against Ppp4r1	inactive: -0.865
GCACUUAAGACCAAGCCUCTT against Osr1	inactive: 1.28
GGAAGAGAUGGAAUUAUUGTT against Sh3bp5	inactive: -0.309
GGACUCAUUUUCUUGAUGGTT against Mre11a	inactive: -1.75
CGACAAGGGUUUUUAUUCUTT against Smcr8	inactive: -0.414
GGAGAAUGAGAUUGAGUGUTT against Rnf144a	inactive: 0.316
GGUCUGAGCUUCCAAUAACTT against Reep5	inactive: 0.183
CCCACAAUCUCGACAGUCUTT against Simc1	inactive: 1.59
GGGAACUAAGCAUUUUGAATT against Sec23a	inactive: 1.7
GGUGAUGUCCUAUUUCAAATT against Erp27	inactive: 0.302
GGAGCUUAUAAGAAAUGGGTT against D5Ertd579e	inactive: 0.225

Sequence	z-score
GCUUUGUUGCCCUACUACCTT against Pacrg	active: -2.26
GGCCACAUGCUUAAAGUGCTT against Slc7a9	inactive: -0.11
GCGACAGAAGUGUCAUAAUTT against Phax	inactive: 0.364
GCAUCAUGAACUCCUUUGUTT against H2bc1	active: -2.43
CCCUGAUACUCAAUGAAGATT against BC049762	inactive: -1.85
CCACCUAUUACAUGAUCUUTT against Rnf32	inactive: -0.23
GUGGUUUAACAUGAAGUCATT against Zfp58	inactive: -1.08
GGAUGGUUUUCAUUUGCUUTT against Cd300ld	inactive: -0.606
GGUGUUUGCUAAGGUGCUCTT against Ampd3	inactive: -0.0493
CCAGUUGUGUGAAUUAUGUTT against Psmd2	inactive: -2
CCUGGGACCAACACAAAAUTT against Ssmem1	inactive: -0.936
GGAGCUCUUCAUCCUCAACTT against Prr5	inactive: -1.8
GGGAGAGAGUUGGCUCUGATT against Prg3	inactive: -0.184
CGUUGUAUUUGGAAAAGUCTT against Ppic	inactive: -0.239
GGAAGUGUUUGAUGUCUUATT against Stk4	inactive: 1.03
GGACAGUGGCACAAUGACATT against Dcbld1	inactive: 0.225
GCGACAGCUUUGCUAAGAUTT against Ndfip2	inactive: 0.553
UGACUUUUGGACACGAGGCTT against Trim15	inactive: -0.159
CGGCUUAGUAAAUGUGACUTT against Cct8l1	inactive: -0.828

4 entries from above, set out differently:
GGGUUUCACAGGCAAACAGTT against Suclg1
  z-score: inactive: -0.904
GGACUGAAACUCGAAGCUATT against Pou4f2
  z-score: inactive: -0.603
GCUCAUCACCUAUGCAGGCTT against Olfr371
  z-score: inactive: 0.634
CGGAUGUGCCAUCCAUCAGTT against Tespa1
  z-score: inactive: -0.135
